Laboratory results: EP3428178B1, “PEPTIDE FOR PREVENTING OR TREATING INFLAMMATORY DISEASES AND USE THEREOF” (dated 2026)
The structures given here were assigned with low confidence; some may be wrong.

How the values were obtained:
[1] = test system: collagen-induced arthritis (CIA) mouse model; experiment: Arthritis progression index in collagen-induced arthritis (CIA) mouse model
Procedure: A collagen-induced arthritis (CIA) mouse model was prepared as follows, as an autoimmune disease-based arthritis model with characteristics similar to human rheumatoid arthritis.
(§1) First, a bovine type II collagen (Chondrex Corporation, USA) and a Freund's complete adjuvant (Chondrex Corporation, USA) were mixed at a ratio of 1:1 and emulsified, and then 50 µl of the emulsified collagen solution was injected intradermally into the tail of a 6-week-old DBA/1J mouse to induce primary immunization. […]
In order to investigate the development of arthritis progression according to the peptide treatment of the present invention, the deepening degree of arthritis with time was measured by evaluating an arthritis progression index. Two observers who were unaware of the specific experimental conditions evaluated progression of arthritis three times a week. In this case, the arthritis progression index was evaluated by 0 to 4 scores per leg according to an arthritis progression evaluation standard by Rossoliniec and the like in Table 2 below to be represented by a total of 0 to 16 scores (a sum of four legs), and thereafter, two observers calculated an average value of the evaluated results to digitize the severity of arthritis. […]

[2] = test system: joint region of collagen-induced arthritis mouse model; experiment: Histological analysis (H&E staining) of hind leg joint tissue of CIA mouse; details: FIG. 6
Procedure: First, a bovine type II collagen (Chondrex Corporation, USA) and a Freund's complete adjuvant (Chondrex Corporation, USA) were mixed at a ratio of 1:1 and emulsified, and then 50 µl of the emulsified collagen solution was injected intradermally into the tail of a 6-week-old DBA/1J mouse to induce primary immunization. At two weeks after the primary immunization, the bovine type II collagen and the Freund's complete adjuvant were mixed at a ratio of 1:1 and emulsified, and then 50 µl of the emulsified collagen solution was injected intradermally into the tail of the mouse again to induce secondary immunization (boosting). After the secondary immunization, the peptide of the present invention (the PSP dimer (1 µmole) or the PSP trimer (1 µmole)) was administered intraperitoneally three times a week from the next day, and as a comparative experimental group, a PSP monomer-treated group and as a control (Vehicle control), a PBS-treated group were used, respectively. The preparation process of the collagen-induced arthritis mouse model and the administration time of the peptide were schematically illustrated in FIG. 1.
In order to confirm a healing effect of the cartilage damage of the joint region according to the peptide treatment of the present invention, the deepening degree of arthritis in Example 2-2 was evaluated and then, a histological analysis was performed. […]

[3] = test system: IL-18; experiment: IL-18 expression in joint tissue by immunohistochemistry (IHC); details: FIG. 7
Procedure: as §1, with “immunization. At two weeks after the primary immunization, the bovine type II collagen and the Freund's complete adjuvant were mixed at a ratio of 1:1 and emulsified, and then 50 µl of the emulsified collagen solution was injected intradermally into the tail of the mouse again to induce secondary immunization (boosting).” for “immunization.”
Rheumatoid arthritis is one of chronic inflammatory diseases and it has been reported to increase the concentration of inflammatory cytokine such as interleukin-18 (IL-18) even in the joint tissues as well as the blood of a patient with rheumatoid arthritis. […] The expression of IL-18 was measured by using immunohistochemistry (IHC), and to this end, a paraffin ingredient was removed from the paraffin tissue fragment and then rehydrated to create an environment in which the antibodies may be stained. […]

In the case of `O=C(N[C@@H](CO)C(=O)N1CCC[C@H]1C(=O)N1CCC[C@H]1C(=O)N[C@@H](CO)C(=O)N1CCC[C@H]1C(=O)N1CCC[C@H]1C(=O)N[C@@H](CO)C(=O)N1CCC[C@H]1C(=O)O)[C@@H]1CCCN1`, the “arthritis progression index compared with methotrexate” value ([1]; methotrexate 1 mg/kg, Tables 6 and 7) was “approximate arthritis progression index to the group treated with methotrexate”, the “swelling and redness around the ankle joint” value ([1]; visual check, compared with the control, FIG. 5) was “remarkably mitigated” and the “immune cell infiltration, pannus formation, cartilage destruction, and bone erosion of the joint region” value [2] was “greatly reduced”. For the same molecule, the “expression of IL-18” value [3] was “largely decreased to the normal mouse level”.
